PubChem BioAssay AID493246 | Drosophila RNAi Screening Center – 2011
Screen: 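Identify essential fly genes by loss of cell viability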 (primary screen). Cells: Drosophila Kc and S2R+ cells. Reagent: long dsRNA against Drosophila genes. Detection: 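Raw, unnormalised count of remaining cells in each well; per-plate z-scores of cell number underlie the calls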. Scale: Kc cell number and S2R+ cell number: higher = more cells remaining. Call rule: 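Counted as a hit if cell number falls by a z-score of at least 3 within its plate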.
The screen tested about 21,000 reagents; below is a random part of those with a known target gene and a result. Of all reagents, 429 (2%) were called active. 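Values are raw and not normalised between plates; calls rest on per-plate z-scores that were not deposited.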 A plus sign joins genes that one reagent is predicted to hit. Not stated in the record: the amount of reagent, the time to read-out.

Gene	amplicon	Kc cell number, rep 1	Kc cell number, rep 2	S2R+ cell number, rep 1	S2R+ cell number, rep 2	outcome
Sirt2	DRSC15714	1.44e6	1.53e6	1.04e6	1.09e6	inactive
Sln	DRSC07133	1.65e6	1.65e6	1.30e6	1.37e6	inactive
Tsf1	DRSC20296	1.71e6	1.78e6	1.15e6	1.32e6	inactive
Grx1	DRSC10727	1.77e6	1.89e6	1.30e6	1.42e6	inactive
Syx5	DRSC03432	1.19e6	1.27e6	1.04e6	1.13e6	inactive
CG14646	DRSC12232	1.38e6	1.44e6	1.07e6	1.23e6	inactive
CG42288	DRSC06381	1.71e6	1.75e6	1.43e6	1.61e6	inactive
CG7646	DRSC11232	1.55e6	2.07e6	1.32e6	1.43e6	inactive
d-cup	DRSC14846	1.79e6	1.87e6	1.29e6	1.48e6	inactive
CG18631 (retired record)	DRSC06779	1.54e6	1.56e6	1.15e6	1.28e6	inactive
Axn	DRSC14120	1.43e6	1.27e6	9.79e5	1.02e6	inactive
Pgm2a	DRSC07068	1.45e6	1.42e6	1.26e6	1.31e6	inactive
CG3085	DRSC04335	1.33e6	1.38e6	1.14e6	1.17e6	inactive
Herp	DRSC02394	1.34e6	1.35e6	5.30e5	7.40e5	inactive
Strip	DRSC08194	1.22e6	1.25e6	1.29e6	1.06e6	inactive
Usp12-46	DRSC16175	1.46e6	1.54e6	1.01e6	1.15e6	inactive
Sgs8	DRSC11282	1.34e6	1.27e6	1.33e6	1.44e6	inactive
Ggt-1	DRSC19993	1.53e6	1.55e6	1.04e6	1.21e6	inactive
GstD4	DRSC16685	1.45e6	1.42e6	1.26e6	1.43e6	inactive
Octalpha2R	DRSC13319	1.61e6	1.57e6	1.02e6	1.15e6	inactive
Octalpha2R	DRSC15314	9.17e5	1.11e6	8.38e5	8.74e5	inactive
Tsp33B	DRSC02418	1.69e6	1.61e6	1.21e6	1.37e6	inactive
rswl	DRSC06923	1.39e6	1.45e6	1.21e6	1.25e6	inactive
Mzt1	DRSC07979	1.45e6	1.42e6	9.96e5	1.15e6	inactive
Rsf1	DRSC03423	1.40e6	1.50e6	1.26e6	1.36e6	inactive
Ugt35D1	DRSC15107	1.60e6	1.61e6	1.03e6	1.18e6	inactive
GNBP2	DRSC10404	1.46e6	1.50e6	1.36e6	1.39e6	inactive
CG30323	DRSC07656	1.47e6	1.55e6	1.20e6	1.31e6	inactive
Alms1a	DRSC18558	1.44e6	1.42e6	1.03e6	1.10e6	inactive
CG13539	DRSC04181	1.51e6	1.60e6	1.28e6	1.39e6	inactive
cg	DRSC07650	5.28e5	5.71e5	4.15e5	5.35e5	active
CG5255	DRSC15754	1.29e6	1.42e6	1.09e6	1.23e6	inactive
CG15025	DRSC15031	1.38e6	1.32e6	1.02e6	1.13e6	inactive
CG34231	DRSC05323	1.47e6	1.47e6	1.02e6	1.18e6	inactive
Alg11	DRSC11647	1.73e6	1.75e6	1.53e6	1.49e6	inactive
CG13630	DRSC14631	1.66e6	1.66e6	1.29e6	1.34e6	inactive
CG13737	DRSC10064	1.79e6	1.77e6	1.29e6	1.34e6	inactive
CG11089 + CG31381	DRSC13690	1.19e6	1.60e6	1.12e6	1.14e6	inactive
CG11089 + CG31381	DRSC14290	1.62e6	1.83e6	1.23e6	1.36e6	inactive
Gasz	DRSC06829	1.37e6	1.45e6	1.08e6	1.15e6	inactive

2 entries from above, reformatted.
Gene | amplicon | Kc cell number, rep 1 | Kc cell number, rep 2 | S2R+ cell number, rep 1 | S2R+ cell number, rep 2 | outcome
cg | DRSC07650 | 5.28e5 | 5.71e5 | 4.15e5 | 5.35e5 | active
CG5255 | DRSC15754 | 1.29e6 | 1.42e6 | 1.09e6 | 1.23e6 | inactive
